Measurements reported in US20260102383A1, “LPAR1 Inhibitors” (AbbVie Inc., priority 2024, published 2026).

By UniProt entry, the sequences of proteins in these tests, tags left out.
UniProt Q92633, whole entry: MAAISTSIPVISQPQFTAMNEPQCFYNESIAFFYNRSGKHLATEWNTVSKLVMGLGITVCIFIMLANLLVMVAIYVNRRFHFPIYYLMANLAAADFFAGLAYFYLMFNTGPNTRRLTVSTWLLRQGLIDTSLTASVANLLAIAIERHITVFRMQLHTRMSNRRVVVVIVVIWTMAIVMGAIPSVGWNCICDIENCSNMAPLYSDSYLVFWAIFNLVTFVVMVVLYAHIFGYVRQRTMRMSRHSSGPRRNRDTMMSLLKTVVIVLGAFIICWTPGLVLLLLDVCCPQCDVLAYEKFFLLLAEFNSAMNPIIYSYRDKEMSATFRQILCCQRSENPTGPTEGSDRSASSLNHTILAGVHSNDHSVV

Biological target: human LPAR1 (Homo sapiens, UniProt Q92633)
Assay: Arrestin assay (Arrestin Reporter EDG2-bla U2OS), inhibition of LPA-stimulated signal
Settings: read-out: Arrestin Reporter EDG2-bla U2OS Human Merged IC50; TangoEDG2-bla U2OS cells expressing human LPAR1; 0.25 μM LPA
Procedure: The inhibitory activity of compounds 15, 62, 77, 84 and 169 against LPAR1 was measured using an Arrestin assay in U2OS cells expressing human LPAR1.
FreeStyle media was warmed in a 37° C. water bath. Cryo-preserved vial(s) of TangoEDG2-bla U2OS cells were rapidly thawed in a 37° C. water bath. The thawed cells were added to FreeStyle media and cells were pelleted at 300×g for 5 minutes. The supernatant was aspirated, and cells were resuspended in FreeStyle media. Cell density was adjusted to 0.25×10^6 cells/mL. Cells (1×10^4 in 40 μL) were added to each well of Greiner 384 well black cell plate(s). Cell plate(s) were placed in a humidified 37° C./5% CO2 incubator for 18-20 hours. Dilutions of test compound were prepared at 6× final concentration; 12-point, 3-fold dilutions using HH Buffer (1×HBSS plus 20 mM HEPES). The 6× test compound was then added to the cell plate(s) at 10 μL/well. The final concentration ranged from 10 μM to 0.00006 μM. Cell plate(s) were incubated in a humidified 37° C./5% CO2 incubator for 1 hour. During the incubation, 6×LPA was prepared at 1.5 μM in 0.1% BSA HH Buffer. After the 1-hour incubation of test compound with cells, the LPA was added to the cell plate(s) at 10 μL/well (final LPA concentration of 0.25 μM). Cell plate(s) were returned to a humidified 37° C./5% CO2 incubator for 3 hours. The Development solution was made up per the LiveBLAzerFRET B/G kit protocol. The Development solution was added to the cell plate(s) at 10 μL/well. Cell plates were incubated in the dark at room temperature for 2 hours. Plate(s) were read on an Envision Plate Reader (Perkin Elmer) to read fluorescence; excitation at 409 nm with emission at 460 nm and 530 nm. Raw Data for analysis is the ratio of emission at 460 nm divided by emission 530 nm. The formula used to determine % Inhibition is as follows (1−(Raw Data−Low Average)/(High Average−Low Average))*100. Percent Inhibition was plotted to determine IC50 value with GraphPad Prism 9.5.0 software using Variable slope 4-parameter curve fit analysis.
Additional compounds of the present disclosure were synthesized in a manner similar to the compounds described above and understood by a person of ordinary skill in the art. The inhibitory activity of the compounds of the present disclosure against LPAR1 was measured using the above-referenced Arrestin Assay protocol.

Compound	IC50 [nM]
CCOCC(CN1CCC(C(=O)Nc2ccc(Cl)cc2OC(F)F)(n2nccc2C(C)C)CC1)C(=O)O (stereo not shown)	41.7
COC(CN1CCC(C(=O)Nc2ccc(Cl)cc2OC(F)F)(n2nccc2C(C)C)CC1)C(=O)O (stereo not shown)	88
COc1cnn(C2(C(=O)Nc3ccc(Cl)cc3OC(F)F)CCN(C[C@@H](CC#N)C(=O)O)CC2)c1C(C)C	118
COc1cnn(C2(C(=O)Nc3ccc(Cl)cc3OC(F)F)CCN(C[C@H](CC#N)C(=O)O)CC2)c1C(C)C	75.4

The structures given here were assigned with low confidence; some may be wrong.
